# PubChem BioAssay AID1259415 (National Center for Advancing Translational Sciences (NCATS), 2018)
# Out of some 410,000 compounds screened, about 18,000 (4.4%) were called active. This list was built around the results that the source calls inconclusive (neither active nor inactive); the mix of calls is not that of the screen. Cut-off read from the data, not from the text of the source: active = activity change below about -60%; inconclusive = no clear call, values can overlap the other calls; inactive = above about -39%.
# Assay: qHTS Assay for inhibitors of the human cytomegalovirus (HCMV)
# Details: HFF cells, HCMV-luciferase reporter, 72 h; at 57.5 µM; stronger effect = lower value
# Method in brief: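 HFF cells seeded 16 h at 37C, treated with compounds, infected with luciferase-reporter HCMV at MOI 1 PFU/cell; luciferase read at 72 h post infection, normalized to buffer-only and Salinomycin controls.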
# % is set by controls: 0 for no effect and ±100 for the full control effect.
row,Structure (SMILES),"activity change, negative = inhibition"
1,Cc1ccc2cccc(OCC(=O)N3CC(C)CC(C)C3)c2n1 (configuration not stated),inconclusive: -52.9%
2,O=C(Nc1ccccc1F)N(Cc1ccc(F)cc1)Cc1nc2ccccc2c(=O)[nH]1,inconclusive: -40.6%
3,CN1C(=O)CSC1=NCC12CC3CC(CC(C3)C1)C2,inconclusive: -49.7%
4,CN(Cc1ccccc1)C(=O)c1ccc(NC(=O)Cc2cccc(NC(=O)C3CCN(C(=O)C4CC4)CC3)c2)cc1,inconclusive: -50.8%
5,CC(C)c1nc(SCC(=O)N2CCCC2)c2ccccc2n1,active: -78.1%
6,COc1ccc(CC(=O)NCCc2sc(-c3cccc(F)c3)nc2C)cc1,inactive: -2.73%
7,Cc1ccc(-n2c(-c3ccccc3)c[n+]3c2CCc2ccccc2-3)c(C)c1,active: -96.9%
8,CCOC(=O)CN(C(=O)CSc1nnc(COc2ccc(OC)cc2)n1C)c1ccccc1,inactive: -18.3%
9,Cc1cc(C)n(-c2ccc(NC(=O)C3CCN(Cc4cnc(C)s4)CC3)cc2)n1,active: -60%
10,Cn1c(=O)oc2cc(S(=O)(=O)N3CCC(C(=O)N4CCN(c5cccc(Cl)c5)CC4)CC3)ccc21,inactive: -11.3%
11,CC(c1nc2ccccc2[nH]1)n1c(=O)c(-c2cccs2)nc2ccccc21 (configuration not stated),inconclusive: -55%
12,Cc1ccc(-c2noc(CCC(=O)Nc3ccc(C)cn3)n2)cc1,inconclusive: -44.6%
13,CCCCOc1cccc(C2(C(=O)O)CCCC2)c1,inconclusive: -40.5%
14,COC(=O)c1ccc(Oc2ccc(S(=O)(=O)N3CCCCC3)cc2N)cc1,inactive: -36.1%
15,COc1ccc(S(=O)(=O)NCc2ccc(C(=O)N(C)Cc3ccco3)cc2)cc1,inactive: -13.3%
16,COc1ccc(Cl)cc1NC(=O)Cn1cc(S(=O)(=O)Cc2cccc(Cl)c2)c2ccccc21,inconclusive: 0%
17,Cc1cccc(C)c1NC(=O)CCn1cnc2ccccc2c1=O,inconclusive: -47.8%
18,Cc1c(C(=O)N2CCCCC2)nnn1-c1nonc1N,active: -62%
19,FC(F)(F)c1nc2ccccc2nc1N/N=C/c1c(Cl)cccc1Cl,inactive: -6.33%
20,O=S(=O)(c1ccccc1)N1CCN=C1SCc1ccccc1Cl,inconclusive: -58.7%
21,COc1cc2ncc3c(-c4ccccc4)nn(-c4ccc(C)cc4)c3c2cc1OC,inactive: 15.1%

# Some values from the list:
# activity change, negative = inhibition, O=S(=O)(c1ccccc1)N1CCN=C1SCc1ccccc1Cl reads inconclusive: -58.7%
# activity change, negative = inhibition, Cc1ccc(-c2noc(CCC(=O)Nc3ccc(C)cn3)n2)cc1 reads inconclusive: -44.6%
# activity change, negative = inhibition, Cc1ccc2cccc(OCC(=O)N3CC(C)CC(C)C3)c2n1 (configuration not stated) reads inconclusive: -52.9%
# activity change, negative = inhibition, CC(C)c1nc(SCC(=O)N2CCCC2)c2ccccc2n1 reads active: -78.1%

# The results go on:

row,Structure (SMILES),"activity change, negative = inhibition"
1,Cc1cc(O)ccc1C1(c2ccc(O)cc2C)OC(=O)c2ccccc21,active: -95.9%
2,O=C(NC1CCCC1)C(c1ccncc1)N(C(=O)c1ccco1)c1ccc(F)c(Cl)c1 (configuration not stated),inconclusive: -56.7%
3,FC(F)(F)c1nnc2c(Sc3ccccc3)nc3ccccc3n12,active: -101%
4,Cn1ccc(C(=O)Nc2ccc3c(c2)OCCO3)n1,inactive: 11.1%
5,Cc1ccc(C)c(Nc2nnc(-c3ccc(C)c(S(=O)(=O)N4CCCCC4)c3)c3ccccc23)c1,active: -66.1%
6,CN(c1cccc(NC(=O)c2ccc(Cl)c(S(=O)(=O)Nc3ccccc3)c2)c1)S(C)(=O)=O,inactive: 2.26%
7,CC1=C(C(=O)N2CCOCC2)CC(CC(=O)NCCCCc2ccccc2)C(=O)N1Cc1ccc(F)cc1 (configuration not stated),inactive: -6.03%
8,CC(=O)Nc1cnc(/C=C\CCCO)cn1,inactive: 15.8%
9,Cc1ccc(NC(=O)CSc2nc(-c3ccco3)cc(C(F)(F)F)n2)cc1C,inconclusive: -46.5%
10,O=C(c1ccc(CS(=O)(=O)c2ccc(Br)cc2)o1)N1CCCCCC1,inconclusive: -52.6%
11,CCCCN(CC)CCCNC(=O)c1cn(CC)c2ccc(S(=O)(=O)N3CCOCC3)cc2c1=O,inactive: -4.06%
12,O=C(OCCN1C(=O)c2ccccc2C1=O)c1ccc(S(=O)(=O)N2CCCCCC2)cc1,inactive: 15%
13,O=c1c2cnn(-c3ccccc3)c2nc(-c2cccs2)n1-c1cccc(Cl)c1,active: -75.7%
14,CCc1c(C)nc(N)c(C#N)c1-c1ccccc1,inconclusive: -40.1%
15,Cc1ccc(CNCc2cc3c(C(C)(C)C)nn(-c4ccccc4)c3[nH]c2=O)cc1,inconclusive: -55.1%
16,O=C(CSc1nnc2c(n1)[nH]c1ccccc12)Nc1cccc(S(=O)(=O)N2CCOCC2)c1,inactive: -10.1%
17,CCSc1cc(Cl)nc(N)n1,inactive: -1.56%
18,Cn1ncc(C(=O)N2CCN(c3ccccc3F)CC2)c1C1CCN(C(=O)OC(C)(C)C)CC1,inconclusive: 0%
19,CC1=C(C(=O)Nc2ccccc2)C(c2cccc([N+](=O)[O-])c2)Nc2nc3ccccc3n21 (configuration not stated),inconclusive: -45.1%
20,CC(C)C(C(=O)N1CCN(Cc2ccccc2)CC1)c1ccccc1 (configuration not stated),inconclusive: -46.7%
21,O=C(O)c1ccc(N=Nc2c(O)ccc3ncccc23)cc1,inconclusive: -41.5%
